From PubChem BioAssay AID330 (DTP/NCI, 2004) come the findings set out here.

The list shows only some results of the screen, not a fair sample: it is rich in T/C values a quarter to a half above the control, in often repeated tests (any T/C) and in doses without a T/C. Other doses and runs of a compound stand elsewhere. T/C: endpoint of the treated group in % of that of the vehicle group. Some doses have a count of surviving animals in place of a T/C: the source files T/C as zero there, which appears to mark a toxic dose or a test without result, not a measured value. Some doses without a T/C left all or most animals alive at the check, yet need not have been tolerated: the source hardly ever lists a survival T/C far under the control, and the zero likely stands for such cases as well. Survivors were counted at the toxicity check, usually on the fifth day, unless a day is given; later deaths do not show. Schedule codes are those of the source, taken here to give the interval after Q, in days (D) or hours (H), and the number of doses after X. Some doses were run more than once; the results are listed from low to high. Some structures stand for samples that the source files as different forms (salt, stereo form or complex); doses refer to the form tested. Where survival is the endpoint, the PubChem record calls one and a half times the control and up active, and a quarter to a half above the control has no call in these data; cut-offs in other NCI protocols can differ. Some T/C values are followed by the survivors on the day toxicity was checked, most often the fifth; without a count, all were alive then.

This experiment relates to P388 leukemia ip, CD2F1 mice, survival T/C. Nature of the experiment: NCI In Vivo Anticancer Drug Screen. Data for tumor model P388 Leukemia (intraperitoneal) in CD2F1 (CDF1) mice. The note with it: T/C endpoint: median survival time, higher T/C = longer survival.
Where [1] appears, read: dose: 6.25 mg/kg/injection, schedule: Q01DX009 (ip), vehicle: saline.
Where [2] appears, read: dose: 12.5 mg/kg/injection, schedule: Q01DX009 (ip), vehicle: saline.
Setting [3] is: dose: 25.0 mg/kg/injection, schedule: Q01DX009 (ip), vehicle: saline.
The mark [4] stands for this setting: dose: 50.0 mg/kg/injection, schedule: Q01DX009 (ip), vehicle: saline.
Where [5] appears, read: dose: 100.0 mg/kg/injection, schedule: Q01DX009 (ip), vehicle: saline.
Where [6] appears, read: dose: 200.0 mg/kg/injection, schedule: Q01DX009 (ip), vehicle: saline.
[7] abbreviates: dose: 50.0 mg/kg/injection, schedule: Q01DX009 (ip), vehicle: Klucel (hydroxypropylcellulose) (HPC).
Setting [8] is: dose: 200.0 mg/kg/injection, schedule: Q01DX009 (ip), vehicle: Klucel (hydroxypropylcellulose) (HPC).
Setting [9] is: dose: 200.0 mg/kg/injection, schedule: Q01DX005 (ip), vehicle: saline with Tween-80.
The mark [10] stands for this setting: dose: 100.0 mg/kg/injection, schedule: Q01DX005 (ip), vehicle: saline with Tween-80.
The mark [11] stands for this setting: dose: 120.0 mg/kg/injection, schedule: Q01DX005 (ip), vehicle: saline.
Where [12] appears, read: dose: 240.0 mg/kg/injection, schedule: Q01DX005 (ip), vehicle: saline.
The mark [13] stands for this setting: dose: 12.5 mg/kg/injection, schedule: Q01DX005 (ip), vehicle: saline with Tween-80.

Turning to `CCOc1cc2c(C)c3ccccc3c(C)c2c2ccccc12`, under “dose: 200.0 mg/kg/injection, schedule: Q04DX003 (ip), vehicle: other”, the survivor count is on record as 6 of 6.

On to `CCNCCC1(C)Oc2ccccc2O1`, for which the survivor count is, setting by setting: (dose: 200.0 mg/kg/injection, schedule: Q01DX001 (ip), vehicle: saline) 0 of 6; (dose: 400.0 mg/kg/injection, schedule: Q01DX001 (ip), vehicle: saline) 0 of 6.

`O=C(O)C1SCSC1C(=O)O` (stereo not drawn): the survivor count (dose: 400.0 mg/kg/injection, schedule: Q01DX009 (ip), vehicle: other) is 0 of 6.

With `O=[N+]([O-])OI(c1ccccc1)c1ccccc1`, the survivor count was 6 of 6 (dose: 3.12 mg/kg/injection, schedule: Q01DX009 (ip), vehicle: saline); 2 of 6 under setting [1]; 0 of 6 and 5 of 6 under setting [2]; 0 of 6 under setting [3]; 0 of 6 under setting [4]; 0 of 6 under setting [5]. For the same molecule, the survivor count under setting [6] is recorded as 0 of 6. The T/C was 105, 109, 116 % of control under setting [1]; 98 and 124 % of control under setting [2].

As for `CN(C)c1ccc(/C=C/c2c(F)cnc3ccccc23)cc1`, the survivor count is listed as 6 of 6 under setting [7]; 6 of 6 (dose: 100.0 mg/kg/injection, schedule: Q01DX009 (ip), vehicle: Klucel (hydroxypropylcellulose) (HPC)); 6 of 6 under setting [8].

Consider `COC(=O)C(C)n1c(C)csc1=S` (stereo not drawn), for which the survivor count under setting [9] is 3 of 6.

In the case of `CC1(C)NC(=O)[C@]2(C[C@@H](OC(=O)c3ccccc3)C=C2C=O)O1`, the survivor count under setting [10] is listed as 1 of 6.

For `Cc1cc2nc3c(=O)[nH]c(=O)nc-3n(CCOC(=O)CCC(=O)O)c2cc1C`, the survivor count (dose: 400.0 mg/kg/injection, schedule: Q04DX003 (ip), vehicle: saline sonified) is recorded as 3 of 6.

Consider `CCOC(=O)C1C(O)CC2c3ccccc3-c3ccccc3C21` (stereo not drawn), for which the survivor count (dose: 240.0 mg/kg/injection, schedule: Q01DX005 (ip), vehicle: saline with Tween-80) is 6 of 6.

On to `CC(C)N=C(c1ccccc1)N1CCCCC1`, for which the survivor count under setting [4] is 0 of 6 and 3 of 6; the survivor count under setting [5] was 0 of 6; the survivor count under setting [6] is 0 of 6.

Regarding `CC(=O)NS(=O)(=O)c1ccc(N=NC2C(=O)N(C(=O)c3ccc(Cl)cc3)N=C2C)cc1` (stereo not drawn), the survivor count by setting is: (dose: 25.0 mg/kg/injection, schedule: Q01DX001 (ip), vehicle: saline with Tween-80) 6 of 6; (dose: 50.0 mg/kg/injection, schedule: Q01DX001 (ip), vehicle: saline with Tween-80) 6 of 6; (dose: 100.0 mg/kg/injection, schedule: Q01DX001 (ip), vehicle: saline with Tween-80) 6 of 6; (dose: 200.0 mg/kg/injection, schedule: Q01DX001 (ip), vehicle: saline with Tween-80) 6 of 6; (dose: 400.0 mg/kg/injection, schedule: Q01DX001 (ip), vehicle: saline with Tween-80) 6 of 6.

Take `C/C(=N\NC1=NCCN1)c1cn(C2=NCCN2)nc1C`: the survivor count by setting is: under setting [11], 0 of 6; under setting [12], 0 of 6.

Turning to `CCCC(O)C(NC(=O)CCl)C(=O)O` (stereo not drawn), the survivor count by setting is: under setting [3], 6 of 6; under setting [4], 5 of 6.

For the molecule `CC(C)(C)N=S=Nc1c(F)c(F)c(F)c(F)c1F`, the survivor count under setting [9] is reported as 0 of 6.

With `O=C(Nc1ccc(C2=NCCN2)cc1)c1ccc(C(=O)Nc2ccc(C3=NCCN3)cc2)c(Cl)c1`, the T/C was 132 % of control (dose: 1.56 mg/kg/injection, schedule: Q01DX009 (ip), vehicle: saline with Tween-80); 127 % of control (dose: 8.0 mg/kg/injection, schedule: Q01DX010 (ip), vehicle: water); 136 % of control (dose: 12.0 mg/kg/injection, schedule: Q01DX010 (ip), vehicle: water); 145 % of control (dose: 16.0 mg/kg/injection, schedule: Q01DX010 (ip), vehicle: water); 125 % of control (dose: 16.2 mg/kg/injection, schedule: Q04DX003 (ip), vehicle: saline); 137 % of control (dose: 27.0 mg/kg/injection, schedule: Q04DX003 (ip), vehicle: saline). For the same molecule, the survivor count reads like this: (dose: 75.0 mg/kg/injection, schedule: Q04DX003 (ip), vehicle: saline) 0 of 8; (dose: 125.0 mg/kg/injection, schedule: Q04DX003 (ip), vehicle: saline) 0 of 8.

As for `CN(C)c1ccc2c(Cl)ccnc2c1`, the survivor count is 0 of 6 under setting [10] and 0 of 6 under setting [9].

As to `S=C(N/N=C1/CCCC/C1=N/NC(=S)N1CCOCC1)N1CCOCC1`, the T/C was 96, 106, 116 [5 of 6 alive], 118 % of control (dose: 6.25 mg/kg/injection, schedule: Q01DX005 (ip), vehicle: saline with Tween-80); 86 and 123 % of control under setting [13]. Besides, the survivor count was 4 of 5 and 5 of 5 under setting [13]; 4 of 5, 5 of 6, 5 of 5 (dose: 25.0 mg/kg/injection, schedule: Q01DX005 (ip), vehicle: saline with Tween-80); 1 of 5 (dose: 50.0 mg/kg/injection, schedule: Q01DX005 (ip), vehicle: saline with Tween-80); 0 of 5 under setting [10]; 0 of 5 under setting [9].

On to `Nc1ccc[nH]c1=O`, for which the T/C under setting [6] was 125 [5 of 6 alive] and 133 % of control. Also, under “dose: 400.0 mg/kg/injection, schedule: Q01DX009 (ip), vehicle: saline”, the survivor count is given as 5 of 6.

In the case of `CCC1CN2CCc3cc(OC)c(OC)cc3C2C/C1=C/C(=O)O` (stereo not drawn), the survivor count (dose: 200.0 mg/kg/injection, schedule: Q01DX009 (ip), vehicle: suspension in saline) is recorded as 0 of 6.

Turning to `CC1(C)CCCC2(C)C1CCC1(C)OC3=CC(=O)C(O)=CC3=CC12` (stereo not drawn), the survivor count under setting [7] is 0 of 6.

`NC(=S)N/N=C/c1ccccc1`: the survivor count reads like this: (dose: 50.0 mg/kg/injection, schedule: Q04DX003 (ip), vehicle: Klucel (hydroxypropylcellulose) (HPC)) 2 of 6; (dose: 100.0 mg/kg/injection, schedule: Q04DX003 (ip), vehicle: Klucel (hydroxypropylcellulose) (HPC)) 1 of 6; (dose: 200.0 mg/kg/injection, schedule: Q04DX003 (ip), vehicle: Klucel (hydroxypropylcellulose) (HPC)) 0 of 6; (dose: 400.0 mg/kg/injection, schedule: Q04DX003 (ip), vehicle: Klucel (hydroxypropylcellulose) (HPC)) 0 of 6.

Regarding `O=C(CBr)Nc1c(Cl)cc(Br)cc1Br`, for the setting “dose: 50.0 mg/kg/injection, schedule: Q01DX009 (ip), vehicle: saline with Tween-80”, the survivor count is 4 of 6.

For `O=c1[nH]c2c(Cl)c(Cl)c(Cl)c(Cl)c2[nH]c1=O`, under setting [9], the survivor count is 6 of 6.

As to `CCCCCCCCN(C)N=Nc1ccccc1C(=O)O`, the survivor count under setting [8] is on record as 2 of 6.

Consider `N=C(N)Cl`, for which the survivor count is recorded as 6 of 6 (dose: 60.0 mg/kg/injection, schedule: Q01DX005 (ip), vehicle: saline); 6 of 6 under setting [11]; 0 of 6 under setting [12].

In the case of `COc1cc(-c2coc3c4c(ccc3c2=O)OC(C)(C)C=C4)c(OC)c2c1OCO2`, under “dose: 80.0 mg/kg/injection, schedule: Q01DX009 (ip), vehicle: other”, the T/C is 145 % of control.

In the case of `O=c1c2ccccc2[nH]c(=S)n1-c1cccc(C(F)(F)F)c1`, the survivor count (dose: 400.0 mg/kg/injection, schedule: Q01DX009 (ip), vehicle: saline with Tween-80) is on record as 5 of 6.

Regarding `C=[CH][Sn]([Cl])([Cl])[CH]=C.COc1ccc(P(=O)(c2ccc(OC)cc2)c2ccc(OC)cc2)cc1`, the T/C (dose: 200.0 mg/kg/injection, schedule: Q04DX003 (ip), vehicle: saline) was 125 % of control.

Turning to `C/C=C/C=C/C1=C2C(=O)N(c3ccccc3)N=C2CC(C)O1` (stereo not drawn), under “dose: 200.0 mg/kg/injection, schedule: Q01DX005 (ip), vehicle: Klucel (hydroxypropylcellulose) (HPC)”, the survivor count is 3 of 6.
